Reference: PubChem BioAssay AID504847 (National Center for Advancing Translational Sciences (NCATS), 2011)
The whole screen tested about 400,000 compounds, of which about 3,700 (0.93%) were called active. Inconclusive results, whose numbers are uncertain, are shown with a selection of clear calls. The call rests on the fitted dose curve; in most records, active means well fitted inhibition curve with a large enough effect; inconclusive means small, poorly fitted or top-dose-only effect, or another doubt; inactive means no such curve, though single readings can be large or run the other way. Where the call is inconclusive, the potency comes from a doubtful curve fit.

Sequences of proteins named here, by UniProt entry; tags and fusion partners are left off. A change or cut given only in a name is not applied to a line headed by its entry.
UniProt P11473: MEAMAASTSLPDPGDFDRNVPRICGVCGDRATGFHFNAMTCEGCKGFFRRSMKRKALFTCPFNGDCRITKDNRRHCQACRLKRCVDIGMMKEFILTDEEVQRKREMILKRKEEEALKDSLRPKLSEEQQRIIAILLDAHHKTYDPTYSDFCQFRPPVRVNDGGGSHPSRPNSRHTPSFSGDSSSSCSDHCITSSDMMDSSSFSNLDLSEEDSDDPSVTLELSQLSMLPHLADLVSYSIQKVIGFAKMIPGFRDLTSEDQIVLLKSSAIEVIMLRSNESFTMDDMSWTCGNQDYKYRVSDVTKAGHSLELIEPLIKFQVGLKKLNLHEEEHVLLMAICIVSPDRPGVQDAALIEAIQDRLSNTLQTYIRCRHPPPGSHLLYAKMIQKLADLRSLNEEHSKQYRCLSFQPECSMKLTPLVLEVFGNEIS

Target: Vitamin D3 receptor (Homo sapiens) (UniProt P11473)
Experiment: Inhibitors of the vitamin D receptor (VDR): qHTS
Details: VDR-SRC2-3 peptide fluorescence polarization, 2 h; max response, negative = inhibition: active compounds read low
Method in brief: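 Compounds are added to VDR with labelled SRC2-3 coactivator peptide and held 2 h at room temperature. Inhibition of the VDR–peptide interaction is then read as a change in fluorescence polarization.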
On the % scale 0 is the no-effect control and ±100 the full control effect; potency means the concentration at half of the fitted maximal effect.

Structure (SMILES) | max response, negative = inhibition | Potency
CCOc1cc(/C=N/Nc2nc(-c3cccc(S(=O)(=O)N4CCCC4)c3)cs2)ccc1O | inactive: -8.44% | –
CCC(Sc1nc(C)cc(C)n1)C(=O)NC1=NN=C(c2ccc(C)cc2)CS1 (stereo not given) | – | inconclusive: 70.8 µM [inhibitor, partial curve]
Cc1cccc(NC(=O)CSc2cccc[n+]2[O-])c1C | – | inconclusive: 56.2 µM [inhibitor, partial curve, poor fit]
C[C@H](NC(N)=O)C(=O)Nc1ccc(N2CCOCC2)c(S(=O)(=O)Nc2ccc(Cl)cc2)c1 | – | inconclusive: 20 µM [inhibitor, full curve, poor fit]
C=CCn1c(Sc2ncc([N+](=O)[O-])s2)n[nH]c1=O | – | active: 28.2 µM
COc1ccc([N+](=O)[O-])c(S(=O)(=O)c2ccccc2)n1 | – | active: 31.6 µM
c1ccc(-c2ccccc2OCCOCCN2CCOCC2)cc1 | inactive: -15.9% | –
CCN(CC)CCSc1nc2ccccc2c(=S)n1-c1ccccc1 | inactive: 1.26% | –
Cc1ccc(CNC(=O)CCc2c(C)nc3ncnn3c2C)cc1 | – | inconclusive: 15.8 µM [inhibitor, single point]
Cc1ccccc1CSc1nc2c([nH]c3ccccc32)c(=O)n1C | inactive: 2.18% | –
CCCc1cc(=O)[nH]c(SCc2nc(-c3ccccc3F)no2)n1 | – | inconclusive: 6.31 µM [inhibitor, single point]
Cc1ccc(C)c(NC(=O)CSc2nc(C)cc(C)c2C#N)c1 | inactive: -10% | –
CCOc1ccc(C(c2c(O)cc(C)n(Cc3ccco3)c2=O)N2CCN(c3ccccc3)CC2)cc1 (stereo not given) | – | inconclusive: 31.6 µM [inhibitor, single point]
N#Cc1c(N2CCSCC2)nsc1-c1ccccc1Cl | inactive: 2.61% | –
N#C/C(=C(/O)CCl)c1nc2c(s1)CCc1ccccc1-2 | – | inconclusive: 79.4 µM [inhibitor, partial curve]
CCOC(=O)CS(=O)(=O)c1nc(-c2ccc(F)cc2)cc(C(F)(F)F)n1 | – | inconclusive: 8.91 µM [inhibitor, partial curve, poor fit]
O=C(Nc1cc(C(=O)Nc2ccccc2C(=O)O)cc(C(=O)Nc2ccccc2C(=O)O)c1)c1ccccc1 | – | inconclusive: 50.1 µM [inhibitor, partial curve, poor fit]
O=S(=O)(NCCc1csc2nc(-c3ccc(F)cc3)nn12)c1ccc(Oc2ccccc2)cc1 | inactive: 8.7% | –
COc1ccc(CNc2nc(-c3ccc(N(C)C)cc3)nc3ccccc23)c(OC)c1 | – | active: 35.5 µM
CCN(CC)CCn1c(SCC(=O)Nc2ccc3c(c2)CCC3)nc2ccccc2c1=O | – | inconclusive: 89.1 µM [inhibitor, single point]

Record cards (already shown):
C=CCn1c(Sc2ncc([N+](=O)[O-])s2)n[nH]c1=O is listed with Potency: active: 28.2 µM
N#C/C(=C(/O)CCl)c1nc2c(s1)CCc1ccccc1-2 is listed with Potency: inconclusive: 79.4 µM [inhibitor, partial curve]
